Measurements from paper PMC13211308, “Chemical genetics reveals Leishmania KKT2 and CRK9 kinase activity is required for cell cycle progression” (PLOS Pathogens, 2026).
No constants are given. Whether binding was seen depends on the method and setting. In cells and extracts the contact can be indirect. These calls come from enrichment with a bait or labelling near it, and not all partners need be listed.

Amino acid sequences for entries named in this document (tags omitted). A change or cut given only in a name is not applied to a line headed by its entry.
UniProt E9ATZ8: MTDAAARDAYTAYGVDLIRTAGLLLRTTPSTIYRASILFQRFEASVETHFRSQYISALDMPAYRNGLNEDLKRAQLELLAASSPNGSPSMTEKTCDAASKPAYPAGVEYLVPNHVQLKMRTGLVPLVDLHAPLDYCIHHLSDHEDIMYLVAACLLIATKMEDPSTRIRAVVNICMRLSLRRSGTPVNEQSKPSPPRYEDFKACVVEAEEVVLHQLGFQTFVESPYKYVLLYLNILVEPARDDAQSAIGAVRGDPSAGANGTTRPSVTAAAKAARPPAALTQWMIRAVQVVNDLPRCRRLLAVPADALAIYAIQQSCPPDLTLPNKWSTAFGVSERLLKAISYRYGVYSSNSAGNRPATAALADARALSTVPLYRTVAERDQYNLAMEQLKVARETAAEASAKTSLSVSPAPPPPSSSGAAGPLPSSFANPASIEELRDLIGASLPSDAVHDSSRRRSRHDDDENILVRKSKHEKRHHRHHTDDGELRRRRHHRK

Target: 3xMyc::BirA*::CRK9 (L. mexicana cyclin-dependent kinase CRK9, LmxM.27.1940) (Leishmania mexicana) (UniProt E9AZ98)
Test: proximity labelling; cross-linking BioID (XL-BioID): 3xMyc::BirA*::CRK9 in L. mexicana promastigotes, 150 µM d-biotin 18 h at 25 °C, 1 mM DSP crosslinker 10 min, RIPA lysis, streptavidin beads, LC-MS/MS (DIA); enrichment against the spatial reference 3xMyc::BirA*::BDF7, 1% FDR

## cyclin CYC12 (LmxM.36.5640) (from UniProt E9ATZ8)
  binding: binds
